Results as given in patent US5100873A (priority 1988, dated 1992).
Some peptides are written in HELM: one residue between dots, names in brackets for other building blocks, links after the first $.

Experiment: general procedure: solution-phase peptide synthesis; DCC/HOBt; ECC/NMM (mixed anhydride)
Details: coupling step, HCl
For “Boc-pMel-Gln-Trp-Ala-Gly-His(Dnp)-Leu-Met-NH2”, the step yield was 95.6%. Boc-pMel-Gln-Trp-Ala-Val-Gly-OBzl gave a step yield of 91.5%. Substance “PEPTIDE1{[Boc].[mMel].L.G.T.Q.W.A.V.G.L.M.[am]}$$$$V2.0” has a step yield of 72.7%. For “PEPTIDE1{[Boc].[pMel].Q.W.A.V.G.[dF].L.M.[am]}$$$$V2.0”, the step yield was 88.8%.

Same assay, conditions: late stage modification step, HCl
“H-pMel-Gln-Trp-Ala-Val-Gly-His(Dnp)-Leu-Met-NH2.HCl” gave a step yield of 83.5%. In the case of “PEPTIDE1{[Boc].[pMel].Q.W.A.V.G}$$$$V2.0”, the step yield is reported as 63%. For “PEPTIDE1{[pMel].Q.W.A.V.G.H.L.M.[am]}$$$$V2.0”, the step yield was 91%.
